The list is a part of this screen's results and no random one: it gathers tests that were run many times, whatever their T/C, doses with no T/C, and many T/C values between a quarter and a half above the control. Other doses and runs of a compound stand elsewhere. T/C: endpoint of the treated group in % of that of the vehicle group. Some doses have a count of surviving animals in place of a T/C: the source files T/C as zero there, which appears to mark a toxic dose or a test without result, not a measured value. Some doses without a T/C left all or most animals alive at the check, yet need not have been tolerated: the source hardly ever lists a survival T/C far under the control, and the zero likely stands for such cases as well. Counts of survivors are from the toxicity check (mostly the fifth day) where no day follows; animals may have died later. Schedules are NCI's codes, taken here to give the interval after Q, in days (D) or hours (H), and the number of doses after X. Some schedule codes hold Z or #, which are not explained here. Where survival is the endpoint, the PubChem record calls one and a half times the control and up active, and a quarter to a half above the control has no call in these data; cut-offs in other NCI protocols can differ.
System: L1210 leukemia ip in BDF1 mice, survival T/C
Assay: NCI In Vivo Anticancer Drug Screen. Data for tumor model L1210 Leukemia (intraperitoneal) in B6D2F1 (BDF1) mice
Details: T/C endpoint: mean survival time, higher T/C = longer survival
[1] = dose: 200.0 mg/kg/injection, schedule: Q01DX009 (ip), vehicle: saline
[2] = dose: 400.0 mg/kg/injection, schedule: Q04DX003 (ip), vehicle: saline
[3] = dose: 400.0 mg/kg/injection, schedule: Q01DX009 (ip), vehicle: Klucel (hydroxypropylcellulose) (HPC)
[4] = dose: 400.0 mg/kg/injection, schedule: Q01DX009 (ip), vehicle: saline
[5] = dose: 400.0 mg/kg/injection, schedule: Q01DX001 (ip), vehicle: saline

O=C(O)c1ccc([N+](=O)[O-])cc1P(=O)(O)O
survivor count (dose: 150.0 mg/kg/injection, schedule: Q04DX003 (ip), vehicle: saline with Tween-80): 4 of 6 | survivor count (dose: 300.0 mg/kg/injection, schedule: Q04DX003 (ip), vehicle: saline with Tween-80): 2 of 6

COC1c2cnc(C)n2C=CN1C(C)=O (stereo unspecified)
survivor count [1]: 2 of 6 | survivor count [2]: 1 of 6

CC(C)([CH2][Sn]([Cl])([Cl])[CH2]C(C)(C)c1ccccc1)c1ccccc1
survivor count (dose: 1.56 mg/kg/injection, schedule: Q04DX002 (ip), vehicle: saline with Tween-80): 3 of 3 | survivor count (dose: 6.25 mg/kg/injection, schedule: Q04DX002 (ip), vehicle: saline with Tween-80): 3 of 3 | survivor count (dose: 12.5 mg/kg/injection, schedule: Q04DX002 (ip), vehicle: saline with Tween-80): 0 of 3

NC(=S)N/N=C/c1nccn1Cc1ccccc1
survivor count (dose: 400.0 mg/kg/injection, schedule: Q01DX001 (ip), vehicle: other): 3 of 3

NC(=O)C1=Cc2cc(Cl)ccc2OC1
survivor count [3]: 6 of 6

CN=C(c1ccc(NC(=O)c2ccc(C(=O)Nc3ccc(C(=NC)N(C)C(C)=O)cc3)cc2)cc1)N(C)C(C)=O
survivor count (dose: 25.0 mg/kg/injection, schedule: Q01DX Z (ip), vehicle: carboxymethylcellulose (CMC)): 6 of 6

CC(C)CCC1=C(O)c2ccccc2C(=O)C1=O
survivor count (dose: 70.0 mg/kg/injection, schedule: Q01DX015 (ip), vehicle: water): 3 of 6

CCCC(C#N)(c1ccccc1)c1ccccc1
survivor count [3]: 2 of 6

CC(=O)CC(=O)C(F)(F)F.[O]=[U]=[O]
survivor count (dose: 12.5 mg/kg/injection, schedule: Q01DX009 (ip), vehicle: gum acacia): 3 of 3 | survivor count (dose: 25.0 mg/kg/injection, schedule: Q01DX005 (ip), vehicle: gum acacia): 3 of 3 | survivor count (dose: 25.0 mg/kg/injection, schedule: Q01DX009 (ip), vehicle: gum acacia): 2 of 3 | survivor count (dose: 50.0 mg/kg/injection, schedule: Q04DX002 (ip), vehicle: gum acacia): 1 of 3 | survivor count (dose: 100.0 mg/kg/injection, schedule: Q04DX002 (ip), vehicle: gum acacia): 0 of 3 | survivor count (dose: 200.0 mg/kg/injection, schedule: Q04DX002 (ip), vehicle: gum acacia): 0 of 3 | survivor count (dose: 400.0 mg/kg/injection, schedule: Q04DX002 (ip), vehicle: gum acacia): 0 of 3

COc1ccc(COC(=O)Nc2cccc(Cl)c2C)cc1
survivor count (dose: 400.0 mg/kg/injection, schedule: Q01DX009 (ip), vehicle: saline with Tween-80): 6 of 6

C(=Nc1ccccc1)c1ccccc1
survivor count (dose: 50.0 mg/kg/injection, schedule: Q01DX009 (ip), vehicle: carboxymethylcellulose (CMC)): 0 of 6 | survivor count (dose: 100.0 mg/kg/injection, schedule: Q01DX009 (ip), vehicle: carboxymethylcellulose (CMC)): 0 of 6 | survivor count (dose: 200.0 mg/kg/injection, schedule: Q01DX009 (ip), vehicle: carboxymethylcellulose (CMC)): 0 of 6 | survivor count (dose: 400.0 mg/kg/injection, schedule: Q01DX009 (ip), vehicle: carboxymethylcellulose (CMC)): 1 of 6 | survivor count [4]: 0 of 6 | survivor count [2]: 6 of 6

CC1C[N-]CC(C)C1.CC1C[N-]CC(C)C1.[Cl][Pt+2]([Cl])([Cl])[Cl] (stereo unspecified)
survivor count (dose: 50.0 mg/kg/injection, schedule: Q01DX009 (ip), vehicle: saline): 2 of 6 | survivor count (dose: 100.0 mg/kg/injection, schedule: Q01DX009 (ip), vehicle: saline): 1 of 6 | survivor count (dose: 200.0 mg/kg/injection, schedule: Q04DX003 (ip), vehicle: saline): 2 of 6 | survivor count [2]: 0 of 6

CN1CCCN(CCOC(c2ccccc2)c2ccccc2)CC1
survivor count (dose: 125.0 mg/kg/injection, schedule: Q01DX Z (ip), vehicle: methylcellulose (MC)): 0 of 6

CCN(CC)Cc1c(O)ccc2c3c(c(=O)oc12)CCCC3
survivor count (dose: 100.0 mg/kg/injection, schedule: Q01DX001 (ip), vehicle: carboxymethylcellulose (CMC)): 2 of 4 | survivor count (dose: 200.0 mg/kg/injection, schedule: Q01DX001 (ip), vehicle: carboxymethylcellulose (CMC)): 1 of 4 | survivor count (dose: 400.0 mg/kg/injection, schedule: Q01DX001 (ip), vehicle: carboxymethylcellulose (CMC)): 0 of 4

COc1c2c(cc3c1C1(O)Cc4ccc5c(c4C[N+]1(C)CC3)OCO5)OCO2 (stereo unspecified)
survivor count [5]: 2 of 4

O=C(O)c1cn(C2CCCCC2)c(=O)[nH]c1=O
survivor count (dose: 100.0 mg/kg/injection, schedule: Q01DX Z (ip), vehicle: methylcellulose (MC)): 4 of 6 | survivor count (dose: 200.0 mg/kg/injection, schedule: Q01DX Z (ip), vehicle: methylcellulose (MC)): 4 of 6

C=CC[n+]1c(C)ccc2ccccc21
survivor count (dose: 100.0 mg/kg/injection, schedule: Q01DX009 (ip), vehicle: saline with Tween-80): 0 of 6 | survivor count (dose: 200.0 mg/kg/injection, schedule: Q01DX001 (ip), vehicle: saline with Tween-80): 1 of 6 | survivor count (dose: 400.0 mg/kg/injection, schedule: Q01DX001 (ip), vehicle: saline with Tween-80): 0 of 6

O=C(OCc1ccc2c(c1)OCO2)C1CC1
survivor count (dose: 200.0 mg/kg/injection, schedule: Q04DX002 (ip), vehicle: saline with Tween-80): 1 of 3

O=c1nc2n(CCN(CCO)CCO)c3cc(Cl)c(Cl)cc3nc-2c(=O)[nH]1
survivor count (dose: 75.0 mg/kg/injection, schedule: Q01DX001 (ip), vehicle: saline): 2 of 6 | survivor count (dose: 150.0 mg/kg/injection, schedule: Q01DX001 (ip), vehicle: saline): 0 of 6 | survivor count (dose: 300.0 mg/kg/injection, schedule: Q01DX001 (ip), vehicle: saline): 0 of 6

Cc1cccc(CSc2nc(N)nc3c2ncn3C2CC(O)C(CO)O2)n1 (stereo unspecified)
T/C [1]: 129 % of control | T/C [4]: 148 % of control

Cc1cc(Cl)cc(CN(C)C)c1O.[Cu+2]
survivor count [5]: 0 of 4

O=C1/C(=N/O)Cc2ccccc21
survivor count (dose: 25.0 mg/kg/injection, schedule: Q01DX009 (ip), vehicle: water): 3 of 6 | survivor count (dose: 50.0 mg/kg/injection, schedule: Q01DX009 (ip), vehicle: water): 0 of 6 | survivor count (dose: 100.0 mg/kg/injection, schedule: Q01DX009 (ip), vehicle: water): 0 of 6 | survivor count (dose: 100.0 mg/kg/injection, schedule: Q04DX003 (ip), vehicle: saline with Tween-80): 6 of 6 | survivor count (dose: 200.0 mg/kg/injection, schedule: Q01DX009 (ip), vehicle: water): 0 of 6 | survivor count (dose: 400.0 mg/kg/injection, schedule: Q01DX009 (ip), vehicle: water): 0 of 6

COc1ccc(OC)c(NC(=S)N/N=C(\C)c2ccc(O)c(C)c2)c1
T/C (dose: 50.0 mg/kg/injection, schedule: Q04DX002 (ip), vehicle: Klucel (hydroxypropylcellulose) (HPC)): 126 % of control

COc1ccc(C(O)c2c(CN(C)C)c3ccccc3n2C)cc1 (stereo unspecified)
survivor count (dose: 200.0 mg/kg/injection, schedule: Q04DX002 (ip), vehicle: other): 1 of 3 | survivor count (dose: 400.0 mg/kg/injection, schedule: Q04DX002 (ip), vehicle: other): 0 of 3

CCCC(CCC)NCC(C)O (stereo unspecified)
survivor count (dose: 150.0 mg/kg/injection, schedule: Q01DX001 (ip), vehicle: acid diluted with saline): 0 of 6 | survivor count (dose: 300.0 mg/kg/injection, schedule: Q01DX001 (ip), vehicle: acid diluted with saline): 0 of 6

CCCCCCCCC/C(C)=N\N=C(N)N
survivor count (dose: 30.0 mg/kg/injection, schedule: Q01DX Z (ip), vehicle: methylcellulose (MC)): 1 of 6 | survivor count (dose: 60.0 mg/kg/injection, schedule: Q01DX Z (ip), vehicle: methylcellulose (MC)): 0 of 6 | survivor count (dose: 120.0 mg/kg/injection, schedule: Q01DX Z (ip), vehicle: methylcellulose (MC)): 0 of 6 | survivor count (dose: 240.0 mg/kg/injection, schedule: Q01DX Z (oral), vehicle: methylcellulose (MC)): 2 of 6 | survivor count (dose: 480.0 mg/kg/injection, schedule: Q01DX Z (oral), vehicle: methylcellulose (MC)): 2 of 6

Cc1cc(=O)[nH]c2c1ccc1[nH]c(=O)cc(C)c12
survivor count (dose: 200.0 mg/kg/injection, schedule: Q04DX003 (ip), vehicle: Klucel (hydroxypropylcellulose) (HPC)): 6 of 6

Cc1ccc(C)c(NC(=O)Oc2ccc(F)cc2Cl)c1
survivor count (dose: 400.0 mg/kg/injection, schedule: Q04DX003 (ip), vehicle: Klucel (hydroxypropylcellulose) (HPC)): 3 of 6

CCC(SC(CC)C(=O)O)C(=O)O (stereo unspecified)
survivor count [5]: 1 of 3

From PubChem BioAssay AID248 (DTP/NCI, 2004)
